Test results reported in paper doi:10.1101/2025.01.19.633807.
Results are given in words; binding and its absence hold for the method and conditions named. In cells and extracts the contact can be indirect. These calls come from enrichment with a bait or labelling near it, and not all partners need be listed. For some of these results: A no says only that the protein was not detected with the bait. Tags and fused reporters may be left off the sequences shown.

Chains of the proteins cited; added tags and fusions are not shown. Residues count along the entry.
UniProt P35637: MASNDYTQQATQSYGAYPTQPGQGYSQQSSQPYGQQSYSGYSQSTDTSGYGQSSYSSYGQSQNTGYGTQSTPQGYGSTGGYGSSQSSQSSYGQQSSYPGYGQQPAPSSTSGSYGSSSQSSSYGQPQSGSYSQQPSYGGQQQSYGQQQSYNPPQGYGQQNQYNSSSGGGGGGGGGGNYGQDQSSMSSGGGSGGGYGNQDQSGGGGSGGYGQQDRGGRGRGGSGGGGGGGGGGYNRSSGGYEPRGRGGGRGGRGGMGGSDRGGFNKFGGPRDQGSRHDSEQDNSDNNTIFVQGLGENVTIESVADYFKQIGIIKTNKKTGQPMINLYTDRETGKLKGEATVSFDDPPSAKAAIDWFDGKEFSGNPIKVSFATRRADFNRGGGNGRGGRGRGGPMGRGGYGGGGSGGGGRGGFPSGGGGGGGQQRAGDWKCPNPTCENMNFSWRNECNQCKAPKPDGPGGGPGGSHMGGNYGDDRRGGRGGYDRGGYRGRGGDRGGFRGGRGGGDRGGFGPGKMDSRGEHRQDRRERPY
UniProt P02545, residues 1-646: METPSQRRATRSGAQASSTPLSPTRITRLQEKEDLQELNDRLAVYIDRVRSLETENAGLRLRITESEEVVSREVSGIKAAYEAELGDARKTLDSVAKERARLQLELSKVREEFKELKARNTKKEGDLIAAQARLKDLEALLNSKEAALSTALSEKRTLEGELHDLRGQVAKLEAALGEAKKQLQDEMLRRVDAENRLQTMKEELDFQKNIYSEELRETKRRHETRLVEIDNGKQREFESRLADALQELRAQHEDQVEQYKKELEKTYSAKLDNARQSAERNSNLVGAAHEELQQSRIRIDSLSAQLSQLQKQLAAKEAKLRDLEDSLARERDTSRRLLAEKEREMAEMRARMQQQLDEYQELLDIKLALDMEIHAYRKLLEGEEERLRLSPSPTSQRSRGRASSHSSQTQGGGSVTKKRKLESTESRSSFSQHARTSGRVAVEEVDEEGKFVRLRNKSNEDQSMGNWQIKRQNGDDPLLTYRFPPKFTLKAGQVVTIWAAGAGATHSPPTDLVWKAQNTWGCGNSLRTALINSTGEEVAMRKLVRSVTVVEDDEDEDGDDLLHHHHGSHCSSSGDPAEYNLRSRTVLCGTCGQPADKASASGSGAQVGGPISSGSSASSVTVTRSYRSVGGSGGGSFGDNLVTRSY

T1: TurboID-GYS1 fusion enzyme (UniProt P13807)
T1 sequence: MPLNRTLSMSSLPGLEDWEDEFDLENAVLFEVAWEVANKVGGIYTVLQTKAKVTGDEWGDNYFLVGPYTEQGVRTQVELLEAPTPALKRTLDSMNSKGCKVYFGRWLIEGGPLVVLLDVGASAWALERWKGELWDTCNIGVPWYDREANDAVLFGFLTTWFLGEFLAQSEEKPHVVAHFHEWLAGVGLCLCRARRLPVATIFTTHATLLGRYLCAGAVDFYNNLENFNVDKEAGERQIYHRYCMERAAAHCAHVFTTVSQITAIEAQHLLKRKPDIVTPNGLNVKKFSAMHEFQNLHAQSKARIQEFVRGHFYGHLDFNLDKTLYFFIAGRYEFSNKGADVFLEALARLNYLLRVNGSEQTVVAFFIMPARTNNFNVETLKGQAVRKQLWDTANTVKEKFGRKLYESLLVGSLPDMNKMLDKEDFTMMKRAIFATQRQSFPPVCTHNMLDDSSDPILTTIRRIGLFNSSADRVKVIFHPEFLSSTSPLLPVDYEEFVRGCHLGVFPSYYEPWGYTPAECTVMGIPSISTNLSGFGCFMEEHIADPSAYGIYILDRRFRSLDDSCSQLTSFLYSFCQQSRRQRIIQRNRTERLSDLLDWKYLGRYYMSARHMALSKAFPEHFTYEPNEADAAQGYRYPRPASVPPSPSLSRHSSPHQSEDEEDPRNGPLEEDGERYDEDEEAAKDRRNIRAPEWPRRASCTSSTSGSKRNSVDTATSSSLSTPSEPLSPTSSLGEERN


How the values were obtained:
[1] = target: T1, TurboID-GYS1 fusion enzyme; experiment: proximity labelling
[2] = target: T1, TurboID-GYS1 fusion enzyme; experiment: affinity purification with mass spectrometry + proximity labelling

binding [1] | binding [2] | Molecule
binds | binds | Fused in sarcoma (FUS) (from UniProt P35637 1-526)
binds | binds | Paraspeckle component 1 (PSPC1) (protein, UniProt Q8WXF1 1-523) MMLRGNLKQVRIEKNPARLRALESAVGESEPAAAAAMALALAGEPAPPAPAPPEDHPDEEMGFTIDIKSFLKPGEKTYTQRCRLFVGNLPTDITEEDFKRLFERYGEPSEVFINRDRGFGFIRLESRTLAEIAKAELDGTILKSRPLRIRFATHGAALTVKNLSPVVSNELLEQAFSQFGPVEKAVVVVDDRGRATGKGFVEFAAKPPARKALERCGDGAFLLTTTPRPVIVEPMEQFDDEDGLPEKLMQKTQQYHKEREQPPRFAQPGTFEFEYASRWKALDEMEKQQREQVDRNIREAKEKLEAEMEAARHEHQLMLMRQDLMRRQEELRRLEELRNQELQKRKQIQLRHEEEHRRREEEMIRHREQEELRRQQEGFKPNYMENREQEMRMGDMGPRGAINMGDAFSPAPAGNQGPPPMMGMNMNNRATIPGPPMGPGPAMGPEGAANMGTPMMPDNGAVHNDRFPQGPPSQMGSPMGSRTGSETPQAPMSGVGPVSGGPGGFGRGSQGGNFEGPNKRRRY
binds | binds | Non-POU domain-containing octamer-binding protein NONO (p54^nrb), endogenous (protein, UniProt Q15233 1-471) MQSNKTFNLEKQNHTPRKHHQHHHQQQHHQQQQQQPPPPPIPANGQQASSQNEGLTIDLKNFRKPGEKTFTQRSRLFVGNLPPDITEEEMRKLFEKYGKAGEVFIHKDKGFGFIRLETRTLAEIAKVELDNMPLRGKQLRVRFACHSASLTVRNLPQYVSNELLEEAFSVFGQVERAVVIVDDRGRPSGKGIVEFSGKPAARKALDRCSEGSFLLTTFPRPVTVEPMDQLDDEEGLPEKLVIKNQQFHKEREQPPRFAQPGSFEYEYAMRWKALIEMEKQQQDQVDRNIKEAREKLEMEMEAARHEHQVMLMRQDLMRRQEELRRMEELHNQEVQKRKQLELRQEEERRRREEEMRRQQEEMMRRQQEGFKGTFPDAREQEIRMGQMAMGGAMGINNRGAMPPAPVPAGTPAPPGPATMMPDGTLGLTPPTTERFGQAATMEGIGAIGGTPPAFNRAAPGAEFAPNKRRRY

Further lines, the molecule ahead of its results:

Molecule | binding [1] | binding [2]
Lamin A/C (from UniProt P02545 1-646) | no binding | –
Nuclear speckle protein SC35 (splicing component 35K) (protein, UniProt Q01130 1-221) MSYGRPPPDVEGMTSLKVDNLTYRTSPDTLRRVFEKYGRVGDVYIPRDRYTKESRGFAFVRFHDKRDAEDAMDAMDGAVLDGRELRVQMARYGRPPDSHHSRRGPPPRRYGGGGYGRRSRSPRRRRRSRSRSRSRSRSRSRSRYSRSKSRSRTRSRSRSTSKSRSARRSKSKSSSVSRSRSRSRSRSRSRSPPPVSKRESKSRSRSKSPPKSPEEEGAVSS | no binding | –
RNA binding motif protein 14 (RBM14) (protein, UniProt Q96PK6 1-669) MKIFVGNVDGADTTPEELAALFAPYGTVMSCAVMKQFAFVHMRENAGALRAIEALHGHELRPGRALVVEMSRPRPLNTWKIFVGNVSAACTSQELRSLFERRGRVIECDVVKDYAFVHMEKEADAKAAIAQLNGKEVKGKRINVELSTKGQKKGPGLAVQSGDKTKKPGAGDTAFPGTGGFSATFDYQQAFGNSTGGFDGQARQPTPPFFGRDRSPLRRSPPRASYVAPLTAQPATYRAQPSVSLGAAYRAQPSASLGVGYRTQPMTAQAASYRAQPSVSLGAPYRGQLASPSSQSAAASSLGPYGGAQPSASALSSYGGQAAAASSLNSYGAQGSSLASYGNQPSSYGAQAASSYGVRAAASSYNTQGAASSLGSYGAQAASYGAQSAASSLAYGAQAASYNAQPSASYNAQSAPYAAQQAASYSSQPAAYVAQPATAAAYASQPAAYAAQATTPMAGSYGAQPVVQTQLNSYGAQASMGLSGSYGAQSAAAATGSYGAAAAYGAQPSATLAAPYRTQSSASLAASYAAQQHPQAAASYRGQPGNAYDGAGQPSAAYLSMSQGAVANANSTPPPYERTRLSPPRASYDDPYKKAVAMSKRYGSDRRLAELSDYRRLSESQLSFRRSPTKSSLDYRRLPDAHSDYARYSGSYNDYLRAAQMHSGYQRRM | binds | binds
